# PubChem BioAssay AID1671190 (National Center for Advancing Translational Sciences (NCATS), 2021)
# Protein sequences, listed by entry. Tags and fused reporters are not part of them. Lines headed by an entry give the natural chain unless they say otherwise; changes in a name come on top.
# UniProt P18054: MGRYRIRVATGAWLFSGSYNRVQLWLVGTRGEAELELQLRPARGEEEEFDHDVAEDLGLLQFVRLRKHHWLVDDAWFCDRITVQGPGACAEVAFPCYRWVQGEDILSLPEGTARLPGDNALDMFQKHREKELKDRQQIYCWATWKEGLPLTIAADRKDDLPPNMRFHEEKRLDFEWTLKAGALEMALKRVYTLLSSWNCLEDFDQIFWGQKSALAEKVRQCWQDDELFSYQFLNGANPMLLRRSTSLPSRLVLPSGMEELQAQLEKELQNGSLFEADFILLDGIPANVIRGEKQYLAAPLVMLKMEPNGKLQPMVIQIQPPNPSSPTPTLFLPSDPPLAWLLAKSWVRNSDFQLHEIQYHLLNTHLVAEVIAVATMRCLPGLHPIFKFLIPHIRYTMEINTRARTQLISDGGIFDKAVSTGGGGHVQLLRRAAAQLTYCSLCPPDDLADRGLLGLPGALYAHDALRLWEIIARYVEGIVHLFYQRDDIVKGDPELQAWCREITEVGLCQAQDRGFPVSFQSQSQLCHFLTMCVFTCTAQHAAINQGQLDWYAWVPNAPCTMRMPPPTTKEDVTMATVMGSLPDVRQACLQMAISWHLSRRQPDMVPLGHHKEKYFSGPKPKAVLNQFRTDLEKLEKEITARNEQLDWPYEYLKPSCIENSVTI
# “And” between values parts separate entries of the source, which are not always exact repeats. Identical values can stand only once. Screen size: about 580,000 compounds; about 6,100 (1.1%) were called active. Inconclusive results, whose numbers are uncertain, are shown with a selection of clear calls. Calls come from the whole dose curve; as a rule, active = well fitted inhibition curve with a large enough effect; inconclusive = small, poorly fitted or top-dose-only effect, or another doubt; inactive = no such curve, though single readings can be large or run the other way. Potencies beside an inconclusive call are fits to weak or partial responses and may not hold up.
# Target: Polyunsaturated fatty acid lipoxygenase ALOX12 (Homo sapiens) (UniProt P18054)
# Assay: Primary qHTS assay for inhibitors of human arachidonate 12S-lipoxygenase (ALOX12): Round 2
# Conditions: purified 12hLO, xylenol orange hydroperoxide absorbance; activity change, negative = inhibition: at 108 µM (top of the series) unless noted
# In short: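 Purified human 12hLO at 150 nM in 25 mM Hepes, 0.01% Triton X-100, pH 7.0, preincubated 15 min at room temperature with compound. Reaction started with 40 uM arachidonic acid, 30 min at room temperature. Hydroperoxide measured by Fe-xylenol orange, 573/405 nm absorbance ratio.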
# % is set by controls: 0 for no effect and ±100 for the full control effect; potency is the fitted concentration of half-maximal effect.
SMILES,Potency,"activity change, negative = inhibition"
CCc1ccccc1-n1nnc(-c2ccccc2)n1,"inconclusive: 89.1 µM [inhibitor, single point]",
CCN(CC)CCn1c(=S)[nH]c2cc(C(=O)NCc3ccccc3Cl)ccc2c1=O,"inconclusive: 50.1 µM [inhibitor, partial curve, poor fit]",
Cc1sc2ncnc(N3CCN(CCOc4ccc(Cl)cc4)CC3)c2c1C,,inactive: -4.33%
O=C(/C=C/c1ccccc1)NC(=S)NNS(=O)(=O)c1ccccc1,"inconclusive: 50.1 µM [inhibitor, partial curve, poor fit]",
Cc1sc2ncnc(NCCN3CCOCC3)c2c1C,,inactive: 0%
CCn1c(SCC(=O)Nc2ccccc2C)nnc1-c1ccccc1O,"inconclusive: 35.5 µM [inhibitor, partial curve, poor fit]",
COc1cccc(CNC(=O)CN2c3cccc4cccc(c34)S2(=O)=O)c1,"inconclusive: 3.98 µM [inhibitor, full curve, poor fit]",
O=C(N/N=C/c1ccc(O)c(O)c1)c1ccc(-n2cnnn2)cc1,"inconclusive: 12.6 µM [inhibitor, full curve, poor fit]",
O=C(CCc1nc2ccccc2s1)Nc1ccccc1,"inconclusive: 112 µM [inhibitor, partial curve, poor fit]",
Cc1ccc(-c2cc(C(=O)NCc3ccco3)c3ccccc3n2)s1,"inconclusive: 39.8 µM [inhibitor, partial curve, poor fit] and active: 25.1 µM",
CCC(C)C(=O)Nc1nnc(-c2cccs2)s1 (stereo not given),"inconclusive: 56.2 µM [inhibitor, partial curve, poor fit]",
CCOC(=O)CSc1nc2sc3c(c2c(=O)[nH]1)CC(C)(C)OC3,"inconclusive: 44.7 µM [inhibitor, partial curve, poor fit]",
CCOC(=O)c1cc2c(=O)n3ccccc3nc2n(Cc2ccco2)c1=NC(=O)c1ccc(C(C)(C)C)cc1,"inconclusive: 39.8 µM [inhibitor, partial curve, poor fit]",
CO[C@@H]1CN(C)C(=O)c2cc(NC(=O)Nc3cc(F)ccc3F)ccc2OC[C@H](C)N(C(=O)c2cnccn2)C[C@@H]1C,"inconclusive: 100 µM [inhibitor, single point]",
CN(CC(=O)Nc1cccc(F)c1)C(=O)CSc1ccccc1F,"inconclusive: 50.1 µM [inhibitor, partial curve, poor fit]",
CCN1CCN(c2nc(C)nc3c2sc(=S)n3C)CC1,,inactive: 11.4% [at 57.4 µM]
CC(Oc1ccccc1)C(=O)NC1CCSc2ccccc21 (stereo not given),"inconclusive: 39.8 µM [inhibitor, partial curve, poor fit]",
Cc1cccc(NC(=S)NN(Cc2ccccc2)c2ccccc2)c1C,"inconclusive: 6.31 µM [inhibitor, partial curve, poor fit]",
COc1ccc(C(=O)N2CCCC3(CC(Cc4ccccc4)=NO3)C2)cc1 (stereo not given),"inconclusive: 17.8 µM [inhibitor, full curve, poor fit]",
O=C(CN1C(=O)NC2(CCCCC2)C1=O)Nc1ccccc1N1CCCC1,"inconclusive: 89.1 µM [inhibitor, single point]",
Cn1cnc(S(=O)(=O)Nc2ccc3c(c2)OCCO3)c1,"inconclusive: 79.4 µM [inhibitor, single point]",
CCN(CC)S(=O)(=O)c1ccc2[nH]c(=O)cc(C(=O)N(C)CC3CC3)c2c1,"inconclusive: 63.1 µM [inhibitor, single point]",

SMILES,Potency,"activity change, negative = inhibition"
CC(CCN1CCC(C(O)(c2ccccc2)c2ccccc2)CC1)Oc1cccc(F)c1 (stereo not given),"inconclusive: 112 µM [inhibitor, partial curve, poor fit]",
COc1ccc(-c2cc(C(=O)O)c3cc(Br)ccc3n2)cc1OC,"inconclusive: 112 µM [inhibitor, single point]",
Cc1ccc(-c2csc(-c3c(N)c(C(=O)c4ccc5c(c4)OCO5)n4ccccc34)n2)cc1C,"inconclusive: 7.08 µM [inhibitor, full curve, poor fit]",
CCNC(=S)Nc1ccc(C)c(S(=O)(=O)Nc2ccccc2OC)c1,,inactive: -26.4%
COc1ccc(CCNC(=O)c2cc3c(=O)n4cccc(C)c4nc3n2C)cc1,,inconclusive: -31.3% [inhibitor]
Cc1cc(C)n2nc3nc4c(cc3c2n1)CCCC4,"inconclusive: 126 µM [inhibitor, single point]",
O=C1CCCC2=C1C1(CCCC1)N=C(Nc1nc3cc(-c4ccccc4)ccc3o1)N2,"inconclusive: 89.1 µM [inhibitor, single point]",
O=C(C[n+]1ccccc1)Nc1ccccc1,,inactive: 0%
CN(CC(=O)Nc1ccccc1Cl)Cc1ncc(-c2ccc(F)cc2)o1,,inactive: -2.4%
COc1ccc(C(=O)c2ccccc2)c(O)c1,"inconclusive: 50.1 µM [inhibitor, partial curve, poor fit]",
Cc1ccc(S(=O)(=O)N2CCN(C(=O)c3cc4cc(Cl)ccc4nc3C)CC2)c(C)c1,"inconclusive: 70.8 µM [inhibitor, partial curve, poor fit]",
O=C(Nc1ccc2c(c1)Cc1ccccc1-2)c1cccnc1,"inconclusive: 25.1 µM [inhibitor, partial curve, poor fit]",
O=C(Cc1cccc(F)c1)N1CCC2(CC1)NC(=O)N(c1ccccc1Cl)N2,"inconclusive: 1.26 µM [inhibitor, full curve]",
CCC(CC)C(=O)Nc1nnc(S(=O)(=O)N(C)c2cc(C)cc(C)c2)s1,,inactive: -12.6%
COC(=O)c1sc(NC(=O)CCN2CCc3ccccc32)c(C(=O)OC)c1C,"inconclusive: 44.7 µM [inhibitor, partial curve, poor fit]",
O=C(O)c1ccc(CSc2cccc(Cl)c2)cc1,"inconclusive: 141 µM [inhibitor, single point]",
O=c1c2c(nc3cc[nH]n13)CN(S(=O)(=O)c1ccc(F)c(Cl)c1)CC2,"inconclusive: 50.1 µM [inhibitor, partial curve, poor fit]",
CN(C)CCSc1nc(N2CCCCC2)c2c(c1C#N)CCCC2,"inconclusive: 1.78 µM [inhibitor, full curve, poor fit]",
Cc1ccc(Cn2nnc3c(=O)n(CC(=O)NCc4ccco4)cnc32)cc1,,inactive: 0.458% [at 57.4 µM]
CCc1ccc2c(c1)NC(=O)C2(C)Cc1ccc(C(F)(F)F)o1 (stereo not given),"inconclusive: 50.1 µM [inhibitor, partial curve, poor fit]",
CC(C)c1ccc(C2C(C(=O)c3ccco3)=C(O)C(=O)N2CC2CCCO2)cc1 (stereo not given),"inconclusive: 100 µM [inhibitor, partial curve, poor fit]",
COc1cccc(/C=C2/Sc3ccc(C(=O)NCCN4CCCCCC4)cc3NC2=O)c1,"inconclusive: 44.7 µM [inhibitor, partial curve, poor fit]",

SMILES,Potency,"activity change, negative = inhibition"
CC1CCN(C(=O)CN2CCCC(c3nc4ccccc4o3)C2)CC1 (stereo not given),,inactive: 38.8%
CN=c1scc(-c2ccc(F)cc2)n1/N=C/c1ccc(O)c(O)c1,active: 44.7 µM,
COc1ccc(OCCN(C)C(=O)c2cc(Br)c[nH]2)cc1,,inactive: 16.2%
COCCN1CCC(N2CCN(S(=O)(=O)c3ccc(C)c(Cl)c3)CC2)C1=O (stereo not given),,inactive: 61%
COC(=O)[C@@H](Cc1c[nH]c2ccccc12)NC(=O)c1ccc2c(c1)OCO2,"inconclusive: 79.4 µM [inhibitor, partial curve, poor fit]",
Cc1ccc2c(c1)C(=O)C(=O)N2Cc1ccccc1,,inactive: -27.5%
Cn1c(NC(=O)Cc2cccs2)cc(=O)n(C)c1=O,,inactive: 10.2% [at 57.4 µM]
Cc1ccsc1C(=O)N1CCC2(CC1)NC(=O)N(c1cccc(Cl)c1)N2,active: 1.26 µM,
COc1ccccc1OCCCCCCN1CCN(C)CC1,"inconclusive: 39.8 µM [inhibitor, partial curve, poor fit]",
CCSc1nc(N)c(C#N)c(-c2ccccc2Cl)c1C#N,"inconclusive: 50.1 µM [inhibitor, full curve, poor fit]",
COc1ccccc1NC(=O)c1cc(-c2ccco2)nc2ccccc12,active: 15.8 µM,
Cc1c(O)ccc2c(CN(C)CCOc3ccc(F)cc3)cc(=O)oc12,,inactive: -0.692%
Cc1ccc(-n2nnnc2SCC(=O)N(C)c2ccccc2C(=O)NCc2ccco2)cc1C,,inactive: 40.4%
CCC(C)NC(=O)c1cn(CC)c2cc(N3CCN(C)CC3)c(F)cc2c1=O (stereo not given),"inconclusive: 44.7 µM [inhibitor, partial curve, poor fit]",
Cc1ccc(C)c(OCc2cc(C(=O)NC3CCN(Cc4ccccc4)CC3)no2)c1,"inconclusive: 100 µM [inhibitor, single point]",
COc1ccccc1CNc1ccnc(-c2cccc(NS(C)(=O)=O)c2)n1,"inconclusive: 20 µM [inhibitor, partial curve, poor fit]",
CCc1cccc(-n2nnnc2N2CCN(C(=O)Nc3ccc(C)c(Cl)c3)CC2)c1,"inconclusive: 11.2 µM [inhibitor, full curve, poor fit]",
CN(C)C(=O)c1cccnc1OC1CCN(C(=O)c2cccc(Br)c2)C1 (stereo not given),,inactive: 17.2%
COc1cc(CNC(=O)c2c(C)noc2-c2cc(OC)c(OC)c(OC)c2)cc(OC)c1,,inactive: 12.7%
COc1ccc(OCC(=O)Nc2ccc(-c3nc4cc(Cl)ccc4o3)cc2)cc1,"inconclusive: 10 µM [inhibitor, partial curve, poor fit]",
COc1cc(C2C(C(=O)/C=C/c3ccccc3)=C(O)C(=O)N2c2ccccn2)ccc1O (stereo not given),"inconclusive: 39.8 µM [inhibitor, partial curve]",
